Measured values from paper PMC9319246.
These are yes or no findings as the source states them, for the method shown. Binding seen in cells or lysates may run through a third protein. A yes stands for co-enrichment or nearness to the bait. Other partners may have been found. Where a sequence is shown, tags or fusion partners need not be part of it.

Chains of the proteins cited; added tags and fusions are not shown.
UniProt Q9UG01: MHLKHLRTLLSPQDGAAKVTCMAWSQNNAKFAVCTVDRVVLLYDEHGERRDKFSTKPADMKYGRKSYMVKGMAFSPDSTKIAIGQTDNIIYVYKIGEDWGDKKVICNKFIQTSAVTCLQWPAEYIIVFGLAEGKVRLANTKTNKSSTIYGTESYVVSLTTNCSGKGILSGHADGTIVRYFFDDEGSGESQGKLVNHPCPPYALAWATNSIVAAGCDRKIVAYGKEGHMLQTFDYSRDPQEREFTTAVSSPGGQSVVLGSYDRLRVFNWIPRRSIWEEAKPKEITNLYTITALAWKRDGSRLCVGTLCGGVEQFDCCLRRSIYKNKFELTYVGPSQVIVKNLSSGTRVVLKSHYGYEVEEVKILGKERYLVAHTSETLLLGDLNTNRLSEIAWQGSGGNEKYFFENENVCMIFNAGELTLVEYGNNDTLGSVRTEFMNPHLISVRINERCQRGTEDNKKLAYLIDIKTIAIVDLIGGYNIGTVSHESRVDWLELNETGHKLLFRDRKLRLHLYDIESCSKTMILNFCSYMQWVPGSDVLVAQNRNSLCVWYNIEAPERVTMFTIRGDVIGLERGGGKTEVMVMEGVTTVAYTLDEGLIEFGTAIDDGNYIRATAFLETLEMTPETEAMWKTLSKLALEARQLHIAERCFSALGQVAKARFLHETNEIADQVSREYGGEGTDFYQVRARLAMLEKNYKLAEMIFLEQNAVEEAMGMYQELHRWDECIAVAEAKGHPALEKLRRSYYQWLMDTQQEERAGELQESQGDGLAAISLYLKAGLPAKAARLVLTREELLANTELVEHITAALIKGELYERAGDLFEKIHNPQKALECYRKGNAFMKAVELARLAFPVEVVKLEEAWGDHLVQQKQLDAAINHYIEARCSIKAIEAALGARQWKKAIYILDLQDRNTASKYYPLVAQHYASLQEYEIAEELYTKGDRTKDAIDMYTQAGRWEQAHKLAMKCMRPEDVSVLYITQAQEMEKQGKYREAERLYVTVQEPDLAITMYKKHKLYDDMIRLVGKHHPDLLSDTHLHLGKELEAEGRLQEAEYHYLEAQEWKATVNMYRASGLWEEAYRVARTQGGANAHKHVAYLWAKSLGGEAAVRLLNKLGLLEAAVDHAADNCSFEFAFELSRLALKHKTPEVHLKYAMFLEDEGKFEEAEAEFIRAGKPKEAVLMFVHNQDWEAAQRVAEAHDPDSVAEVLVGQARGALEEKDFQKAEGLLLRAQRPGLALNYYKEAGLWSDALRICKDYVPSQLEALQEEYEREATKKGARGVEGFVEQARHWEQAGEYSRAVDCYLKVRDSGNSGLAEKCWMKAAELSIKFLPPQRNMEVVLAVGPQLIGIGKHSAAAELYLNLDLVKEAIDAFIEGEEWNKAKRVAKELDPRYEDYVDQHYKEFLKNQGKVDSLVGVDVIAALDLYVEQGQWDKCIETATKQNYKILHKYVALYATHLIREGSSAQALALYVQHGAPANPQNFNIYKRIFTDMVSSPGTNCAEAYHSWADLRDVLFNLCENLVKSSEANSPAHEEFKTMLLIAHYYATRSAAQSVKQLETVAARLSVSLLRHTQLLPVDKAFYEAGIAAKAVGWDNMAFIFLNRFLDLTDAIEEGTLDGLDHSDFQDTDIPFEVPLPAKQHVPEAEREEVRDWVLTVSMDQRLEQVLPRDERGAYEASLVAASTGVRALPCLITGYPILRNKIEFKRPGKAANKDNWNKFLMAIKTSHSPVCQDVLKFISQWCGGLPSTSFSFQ

T1: Strep/FLAG-tagged LCA5 (UniProt Q86VQ0)
T1 sequence: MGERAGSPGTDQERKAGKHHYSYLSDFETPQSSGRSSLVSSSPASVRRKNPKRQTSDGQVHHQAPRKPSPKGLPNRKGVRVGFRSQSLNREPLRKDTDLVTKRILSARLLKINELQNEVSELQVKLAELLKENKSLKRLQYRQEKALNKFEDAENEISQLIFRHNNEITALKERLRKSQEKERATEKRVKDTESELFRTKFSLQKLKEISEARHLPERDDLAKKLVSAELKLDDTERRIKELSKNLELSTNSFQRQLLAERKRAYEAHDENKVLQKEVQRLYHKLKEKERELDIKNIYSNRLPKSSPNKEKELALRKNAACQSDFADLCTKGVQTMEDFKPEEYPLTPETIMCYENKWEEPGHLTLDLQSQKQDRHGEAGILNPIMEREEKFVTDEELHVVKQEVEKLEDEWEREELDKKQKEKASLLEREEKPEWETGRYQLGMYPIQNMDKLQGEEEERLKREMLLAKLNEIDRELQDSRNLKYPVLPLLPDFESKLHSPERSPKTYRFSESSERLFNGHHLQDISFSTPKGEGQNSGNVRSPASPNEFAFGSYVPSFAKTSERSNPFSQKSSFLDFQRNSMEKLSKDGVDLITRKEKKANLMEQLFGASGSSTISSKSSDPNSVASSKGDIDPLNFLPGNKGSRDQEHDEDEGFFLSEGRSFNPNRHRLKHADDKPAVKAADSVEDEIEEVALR

B1: TTC30A (endogenous, untagged) (protein, UniProt Q86WT1 1-665)
chain: MAGLSGAQIPDGEFTALVYRLIRDARYAEAVQLLGRELQRSPRSRAGLSLLGYCYYRLQEFALAAECYEQLGQLHPELEQYRLYQAQALYKACLYPEATRVAFLLLDNPAYHSRVLRLQAAIKYSEGDLPGSRSLVEQLLSGEGGEESGGDNETDGQVNLGCLLYKEGQYEAACSKFSATLQASGYQPDLSYNLALAYYSSRQYASALKHIAEIIERGIRQHPELGVGMTTEGFDVRSVGNTLVLHQTALVEAFNLKAAIEYQLRNYEVAQETLTDMPPRAEEELDPVTLHNQALMNMDARPTEGFEKLQFLLQQNPFPPETFGNLLLLYCKYEYFDLAADVLAENAHLTYKFLTPYLYDFLDALITCQTAPEEAFIKLDGLAGMLTEQLRRLTKQVQEARHNRDDEAIKKAVNEYDETMEKYIPVLMAQAKIYWNLENYPMVEKVFRKSVEFCNDHDVWKLNVAHVLFMQENKYKEAIGFYEPIVKKHYDNILNVSAIVLANLCVSYIMTSQNEEAEELMRKIEKEEEQLSYDDPNRKMYHLCIVNLVIGTLYCAKGNYEFGISRVIKSLEPYNKKLGTDTWYYAKRCFLSLLENMSKHMIVIHDSVIQECVQFLGHCELYGTNIPAVIEQPLEEERMHVGKNTVTDESRQLKALIYEIIGWNK
B2: IFT52 (protein, UniProt Q9Y366 1-437)
chain: MEKELRSTILFNAYKKEIFTTNNGYKSMQKKLRSNWKIQSLKDEITSEKLNGVKLWITAGPREKFTAAEFEILKKYLDTGGDVFVMLGEGGESRFDTNINFLLEEYGIMVNNDAVVRNVYHKYFHPKEALVSSGVLNREISRAAGKAVPGIIDEESSGNNAQALTFVYPFGATLSVMKPAVAVLSTGSVCFPLNRPILAFYHSKNQGGKLAVLGSCHMFSDQYLDKEENSKIMDVVFQWLTTGDIHLNQIDAEDPEISDYMMLPYTATLSKRNRECLQESDEIPRDFTTLFDLSIFQLDTTSFHSVIEAHEQLNVKHEPLQLIQPQFETPLPTLQPAVFPPSFRELPPPPLELFDLDETFSSEKARLAQITNKCTEEDLEFYVRKCGDILGVTSKLPKDQQDAKHILEHVFFQVVEFKKLNQEHDIDTSETAFQNNF
B3: IFT46 (protein, UniProt Q9NQC8 1-304)
chain: MADNSSDECEEENNKEKKKTSQLTPQRGFSENEDDDDDDDDSSETDSDSDDDDEEHGAPLEGAYDPADYEHLPVSAEIKELFQYISRYTPQLIDLDHKLKPFIPDFIPAVGDIDAFLKVPRPDGKPDNLGLLVLDEPSTKQSDPTVLSLWLTENSKQHNITQHMKVKSLEDAEKNPKAIDTWIESISELHRSKPPATVHYTRPMPDIDTLMQEWSPEFEELLGKVSLPTAEIDCSLAEYIDMICAILDIPVYKSRIQSLHLLFSLYSEFKNSQHFKALAEGKKAFTPSSNSTSQAGDMETLTFS
B4: IFT81 (protein, UniProt Q8WYA0 1-676)
chain: MSDQIKFIMDSLNKEPFRKNYNLITFDSLEPMQLLQVLSDVLAEIDPKQLVDIREEMPEQTAKRMLSLLGILKYKPSGNATDMSTFRQGLVIGSKPVIYPVLHWLLQRTNELKKRAYLARFLIKLEVPSEFLQDETVADTNKQYEELMEAFKTLHKEYEQLKISGFSTAEIRKDISAMEEEKDQLIKRVEHLKKRVETAQNHQWMLKIARQLRVEKEREEYLAQQKQEQKNQLFHAVQRLQRVQNQLKSMRQAAADAKPESLMKRLEEEIKFNLYMVTEKFPKELENKKKELHFLQKVVSEPAMGHSDLLELESKINEINTEINQLIEKKMMRNEPIEGKLSLYRQQASIISRKKEAKAEELQEAKEKLASLEREASVKRNQTREFDGTEVLKGDEFKRYVNKLRSKSTVFKKKHQIIAELKAEFGLLQRTEELLKQRHENIQQQLQTMEEKKGISGYSYTQEELERVSALKSEVDEMKGRTLDDMSEMVKKLYSLVSEKKSALASVIKELRQLRQKYQELTQECDEKKSQYDSCAAGLESNRSKLEQEVRRLREECLQEESRYHYTNCMIKNLEVQLRRATDEMKAYISSDQQEKRKAIREQYTKNTAEQENLGKKLREKQKVIRESHGPNMKQAKMWRDLEQLMECKKQCFLKQQSQTSIGQVIQEGGEDRLIL

Biological target: T1, Strep/FLAG-tagged LCA5
Assay: affinity purification with mass spectrometry; Strep-Tactin Superflow on lysates of HEK293T Cas9 control, TTC30B KO and TTC30A/B KO cells transfected with Strep/FLAG-tagged LCA5 or IFT88 (Strep/FLAG-RAF1 as control); Strep elution buffer; label-free LC-MS/MS; four biological replicates

Molecule | binding
IFT172 (from UniProt Q9UG01 1-1749) | binds
B1 | binds
B2 | binds
B3 | binds
B4 | binds
